According to PubChem BioAssay AID2549 (National Center for Advancing Translational Sciences (NCATS), 2010):
Where “and” joins values, the source holds several entries; their conditions need not be identical. Identical values can stand only once. Screen size: about 240,000 compounds; about 1,300 (0.54%) were called active. This list was built around the results that the source calls inconclusive (neither active nor inactive); the mix of calls is not that of the screen. Calls come from the whole dose curve; as a rule, active = well fitted inhibition curve with a large enough effect; inconclusive = small, poorly fitted or top-dose-only effect; inactive = flat fitted curve, though single readings scatter. Potencies beside an inconclusive call are fits to weak or partial responses and may not hold up. Some structures have more than one record in an assay (separate samples or runs), and their calls can disagree.

Chains of the proteins cited; added tags and fusions are not shown. Lines headed by an entry give the natural chain unless they say otherwise; changes in a name come on top.
UniProt P46063: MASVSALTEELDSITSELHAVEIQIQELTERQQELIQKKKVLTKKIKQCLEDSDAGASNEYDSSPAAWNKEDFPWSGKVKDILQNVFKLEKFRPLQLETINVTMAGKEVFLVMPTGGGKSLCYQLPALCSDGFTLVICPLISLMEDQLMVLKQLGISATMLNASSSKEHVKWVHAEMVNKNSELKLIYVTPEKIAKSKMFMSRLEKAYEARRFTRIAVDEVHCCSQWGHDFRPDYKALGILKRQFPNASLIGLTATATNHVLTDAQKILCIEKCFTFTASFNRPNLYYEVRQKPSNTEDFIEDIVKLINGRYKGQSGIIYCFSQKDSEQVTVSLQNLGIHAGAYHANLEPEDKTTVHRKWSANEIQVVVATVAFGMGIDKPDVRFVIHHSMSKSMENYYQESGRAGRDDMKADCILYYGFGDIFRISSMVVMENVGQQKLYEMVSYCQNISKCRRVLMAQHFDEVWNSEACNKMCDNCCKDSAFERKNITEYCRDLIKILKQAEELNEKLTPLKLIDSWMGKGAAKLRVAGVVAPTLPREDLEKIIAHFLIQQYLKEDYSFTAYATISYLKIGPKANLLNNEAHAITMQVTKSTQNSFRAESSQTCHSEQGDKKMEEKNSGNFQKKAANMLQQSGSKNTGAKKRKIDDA

biological target: ATP-dependent DNA helicase Q1 (Homo sapiens) (UniProt P46063); assay: qHTS Assay for Inhibitors of RecQ-Like Dna Helicase 1 (RECQ1); settings: RECQ1 DNA unwinding, red fluorescence kinetic read; activity, negative = inhibition: at 57.3 µM (top of the series); series mostly up to 57.3 µM; note: nearly all actives have a fitted effect of over 30% in size;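 for activity, negative = inhibition: plate controls were vehicle for no effect and no enzyme for full effect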
How it was run: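 50 nM RECQ1T1 preincubated 15 min with compound in Tris pH 8.0 buffer with MgCl2, DTT, Tween-20 and 2.5 ug/ml poly(dI-dC); started with 200 nM TAMRA/BHQ-2 forked duplex and 2 mM ATP. Unwinding read as fluorescence (525/598 nm), two reads 2 h apart.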
Potency is the fitted concentration of half-maximal effect.

Compound | Potency | activity, negative = inhibition | outcome
CC1=C(C#N)C(=O)N(C2CCS(=O)(=O)C2)C(=O)/C1=C\c1ccc(C)o1 (stereo unspecified) | active: 22.4 µM | – | –
Cc1cc(C(=O)COC(=O)c2cccn2C)c(C)n1Cc1ccco1 | inconclusive: 39.8 µM [inhibitor, single point] | – | –
COc1ccc(-c2nc3n(n2)C(=O)CC(c2ccco2)S3)cc1 (stereo unspecified) | – | inactive: -8.16% | –
O=C(O)c1cccc(Cn2c(Cl)c(/C=N/Nc3ccccc3)sc2=O)c1 | active: 31.6 µM | – | –
Cc1nn(-c2ccccc2)c(Cl)c1/C=C1\SC(=S)NC1=O | inconclusive: 39.8 µM [inhibitor, single point] | – | –
CCCCn1c(SCC(=O)c2ccc(O)c(O)c2)nc2ccsc2c1=O | active: 22.4 µM | – | –
COc1cc2c(cc1OC)-c1cc(NCc3ccccn3)nc(=O)n1CC2 | – | – | inactive
COc1cc(/C=C2/SC(=S)N(CC(=O)O)C2=O)ccc1OC(=O)c1cccs1 | – | – | inactive
CCCCOC(=O)NS(=O)(=O)c1sc(CC(C)C)cc1-c1ccc(Cn2c(CC)nc3c(C)cc(C)nc32)cc1 | inconclusive: 20 µM [inhibitor, partial curve] | – | –
C[C@@H]1O[C@@H](Oc2c(-c3cc(O)c(O)c(O)c3)oc3cc(O)cc(O)c3c2=O)[C@H](O)[C@H](O)[C@H]1O | active: 28.2 µM | – | –
Cn1c(=O)c(C(=O)COC(=O)c2cc(-c3ccco3)nc3ccccc23)c(N)n(Cc2ccccc2)c1=O | active: 31.6 µM | – | –
C/C(=N\NC(=O)c1cc2ccccc2cc1O)c1cc2ccccc2o1 | inconclusive: 22.4 µM [inhibitor, single point] | – | –
O=C(Cn1cc(C(F)(F)F)ccc1=O)N/N=C/c1ccccc1O | – | inactive: -4% | –
O=C(CSc1nc(O)cc(=O)[nH]1)N1c2ccccc2Sc2ccccc21 | – | inactive: -4.54% | –
COCCCNCC1C(Oc2ccc(Cl)cc2)C(=O)N1c1ccccc1C (stereo unspecified) | inconclusive: 3.16 µM [inhibitor, partial curve, poor fit] | – | –
O=C(Nc1ccc2ccccc2c1)c1onc2c1CCCC2 | inconclusive: 35.5 µM [inhibitor, single point] | – | –
COc1cc(OC)c2c(c1C(CCN1CCN(c3ccccc3)CC1)c1ccc(N(C)C)cc1)OC(=O)CC2c1ccc(N(C)C)cc1 (stereo unspecified) | – | – | inactive
CC(=O)Nc1ccc(C(=O)CSc2nc3ccc(C)cc3[nH]2)cc1 | inconclusive: 0.158 µM [inhibitor, full curve, poor fit] | – | –
N#Cc1cccc(CS(=O)(=O)c2nnnn2C2CCCCC2)c1 | – | – | inactive
CCCCN1Cc2c(nc3cc(-c4ccco4)[nH]n3c2=O)C1=O | – | inactive: -7.5% | –
Cc1cc(C)cc(NC(=O)c2nnn(Cc3cc(C)ccc3C)c2N)c1 | active: 1.78 µM | – | –
CC(C)NC(=O)NC(=O)COC(=O)c1ccccc1Oc1ccccc1 | inconclusive: 0.158 µM [inhibitor, full curve, poor fit] | – | –
COc1ccc2cc(C(=O)C3CCCN(C(=O)/C=C/c4ccccn4)C3)ccc2c1 (stereo unspecified) | – | inactive: -13.7% | –

Compound | Potency | activity, negative = inhibition | outcome
COc1ccc(C(OCCN2CCC[C@H](C(=O)O)C2)(c2ccc(OC)cc2)c2ccc(OC)cc2)cc1 | – | inactive: 8.47% | –
Cc1cccc(NC(=O)CN2C(=O)N/C(=C/c3cc(C)n(-c4ccncc4)c3C)C2=O)c1 | – | – | inactive
CCC1=C2CC[C@H]3C(=O)N(c4ccccc4)C(=O)[C@H]3[C@H]2[C@@]2(Cc3ccccc3)C(=NCCOC)OC(=O)N2C1=O | – | inactive: -8.24% | –
CSc1ccccc1NC(=O)CN(C)CC(=O)Nc1ccccc1N1CCOCC1 | inconclusive: 0.708 µM [inhibitor, partial curve, poor fit] | – | –
Cc1ccnc2nc(C(=O)Nc3nnc(-c4ccccc4)o3)nn12 | inconclusive: 39.8 µM [inhibitor, single point] | – | –
O=C(CC1C(=O)NCCN1Cc1ccc(-c2ccccc2)cc1)NCCOc1cccnc1 (stereo unspecified) | inconclusive: 35.5 µM [inhibitor, single point] | – | –
CCOc1ccc(NC(=S)Nc2cccc3cnccc23)cc1 | – | inactive: -0.81% | –
O=C(O)c1cccc(-n2cccc2/C=C2/NC(=O)N(c3ccc(Cl)cc3)C2=O)c1 | active: 31.6 µM | – | –
C/C(CCN1CCCc2nc(C)c(C)cc21)=N\OC[C@@H](C)[C@H](OCc1ccccc1)C(C)C | – | – | inactive [at 11.5 µM]
O=C(Nc1ccccc1C(=O)Nc1ccc2c(c1)OCO2)c1ccco1 | inconclusive: 39.8 µM [inhibitor, partial curve] | – | –
O=C(/C=C/c1ccco1)N1CCCC(c2ccccc2)C1 (stereo unspecified) | inconclusive: 39.8 µM [inhibitor, single point] | – | –
O=C1C=C(N(CCO)Cc2ccccc2)c2ccccc2C1=O | inconclusive: 39.8 µM [inhibitor, single point] | – | –
Cn1c(=O)c(C(=O)COC(=O)c2cc(-c3ccco3)nc3ccccc23)c(N)n(CC2CC2)c1=O | active: 22.4 µM and active: 31.6 µM | – | –
O=C(COC(=O)c1ccc(NS(=O)(=O)c2cccs2)cc1)NCc1ccco1 | active: 14.1 µM | – | –
O=C(N/N=C/c1cn(-c2ccccc2)nc1-c1ccc(F)cc1)c1ccc2c(c1)OCO2 | – | inactive: -8.05% | –
C=CCNC(=S)N1CCN(c2cccc(C(F)(F)F)c2)CC1 | inconclusive: 1 µM [inhibitor, full curve, poor fit] | – | –
O=c1ccn([C@@H]2O[C@H](COP(=O)(O)O)[C@@H](O)[C@H]2O)c(=O)[nH]1 | – | inactive: 8.64% | –
O=C(c1ccccc1-c1ccccc1)N1CCCC1 | inconclusive: 0.562 µM [inhibitor, partial curve, poor fit] | – | –
C=C1c2cccc(O)c2C(O)=C2C(=O)[C@]3(O)C(O)=C(C(N)=O)C(=O)C(N(C)C)C3C(O)C12 (stereo partly specified) | active: 8.91 µM | – | –
COc1ccc(OC2C(=O)N(Cc3ccc4c(c3)OCO4)C2c2cccs2)cc1 (stereo unspecified) | inconclusive: 39.8 µM [inhibitor, single point] | – | –
CN(C)C(=S)NC(=O)c1cccc(Cl)c1 | – | – | inactive
COc1ccc2oc(=O)c(NC(=O)C3CCCCC3)cc2c1 | inconclusive: 7.08 µM [inhibitor, single point] | – | –
Cc1ccc(S(=O)(=O)N2CCCC(CCC(=O)NCc3ccccc3F)C2)s1 (stereo unspecified) | – | inactive: -16.1% | –
